{"source": "PubChem BioAssay AID1224828 | NIAID – 2016", "aim": "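Knock-downs that increase or decrease LPS-induced p65 nuclear translocation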 (primary screen)", "cells": "mouse RAW264.7 G9 macrophage reporter cells (GFP-p65, Tnf promoter-mCherry)", "knock-down reagent": "siRNA pool against mouse genes, 100 nM", "timing": "2 days siRNA transfection, then 40 min LPS before fixation", "challenge": "LPS (Salmonella minnesota R595) at 10 ng/ml", "measurement": "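Imaged p65 nuclear translocation ratio, normalised to the plate median, converted to robust z-scores and averaged across two replicates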", "scale": "p65 translocation robust z-score: higher = more nuclear NF-kappaB p65 after LPS than the plate median; nuclear/cytoplasmic p65 ratio: higher = more nuclear NF-kappaB p65", "rule for the call": "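Active if robust z is above 3.3 (negative regulators) or below -1.56, the Tlr4 control median (positive regulators); activity score 50 or more; control wells not called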", "calls": "active = hit (p65 shift raised or lowered); inactive = no clear change", "note": "This is a random part of about 17,000 deposited reagents. 762 of all reagents (4.5%) were called active. 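Active calls include both raised and lowered p65 entry, mostly lowered; wells with fewer than 50 cells lack a z-score.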 The raw values are shown without normalisation."}
{"target gene": "Cd300ld3", "p65 translocation robust z-score": 0.12, "nuclear/cytoplasmic p65 ratio, rep 1": 1.52, "nuclear/cytoplasmic p65 ratio, rep 2": 1.9, "low cell count flag": "enough cells to score", "call": "inactive"}
{"target gene": "Insrr", "p65 translocation robust z-score": 1.32, "nuclear/cytoplasmic p65 ratio, rep 1": 1.84, "nuclear/cytoplasmic p65 ratio, rep 2": 1.59, "low cell count flag": "enough cells to score", "call": "inactive"}
{"target gene": "Cldn1", "p65 translocation robust z-score": -2.02, "nuclear/cytoplasmic p65 ratio, rep 1": 1.22, "nuclear/cytoplasmic p65 ratio, rep 2": 1.12, "low cell count flag": "enough cells to score", "call": "active"}
{"target gene": "Acox1", "p65 translocation robust z-score": 1.32, "nuclear/cytoplasmic p65 ratio, rep 1": 1.83, "nuclear/cytoplasmic p65 ratio, rep 2": 1.8, "low cell count flag": "enough cells to score", "call": "inactive"}
{"target gene": "Zfp593", "nuclear/cytoplasmic p65 ratio, rep 1": 1.15, "nuclear/cytoplasmic p65 ratio, rep 2": 1.4, "low cell count flag": "fewer than 50 cells per well; well left out of scoring", "call": "inactive"}
{"target gene": "Fxr1", "p65 translocation robust z-score": 0.47, "nuclear/cytoplasmic p65 ratio, rep 1": 1.52, "nuclear/cytoplasmic p65 ratio, rep 2": 1.41, "low cell count flag": "enough cells to score", "call": "inactive"}
{"target gene": "Srsf6", "p65 translocation robust z-score": 0.08, "nuclear/cytoplasmic p65 ratio, rep 1": 1.34, "nuclear/cytoplasmic p65 ratio, rep 2": 1.33, "low cell count flag": "enough cells to score", "call": "inactive"}
{"target gene": "Hebp1", "p65 translocation robust z-score": 0.18, "nuclear/cytoplasmic p65 ratio, rep 1": 1.69, "nuclear/cytoplasmic p65 ratio, rep 2": 1.55, "low cell count flag": "enough cells to score", "call": "inactive"}
{"target gene": "Igf2bp3", "p65 translocation robust z-score": 1.45, "nuclear/cytoplasmic p65 ratio, rep 1": 1.65, "nuclear/cytoplasmic p65 ratio, rep 2": 1.54, "low cell count flag": "enough cells to score", "call": "inactive"}

Laid out differently: entries from further up
target gene,p65 translocation robust z-score,"nuclear/cytoplasmic p65 ratio, rep 1","nuclear/cytoplasmic p65 ratio, rep 2",low cell count flag,call
Srsf6,0.08,1.34,1.33,enough cells to score,inactive
Hebp1,0.18,1.69,1.55,enough cells to score,inactive

The list goes on:
{"target gene": "Ppp1r11", "p65 translocation robust z-score": -0.97, "nuclear/cytoplasmic p65 ratio, rep 1": 1.34, "nuclear/cytoplasmic p65 ratio, rep 2": 1.3, "low cell count flag": "enough cells to score", "call": "inactive"}
{"target gene": "Klhdc3", "p65 translocation robust z-score": -0.09, "nuclear/cytoplasmic p65 ratio, rep 1": 1.56, "nuclear/cytoplasmic p65 ratio, rep 2": 1.4, "low cell count flag": "enough cells to score", "call": "inactive"}
{"target gene": "Vmn1r56", "p65 translocation robust z-score": 0.13, "nuclear/cytoplasmic p65 ratio, rep 1": 1.39, "nuclear/cytoplasmic p65 ratio, rep 2": 1.25, "low cell count flag": "enough cells to score", "call": "inactive"}
{"target gene": "Vpreb3", "p65 translocation robust z-score": -0.58, "nuclear/cytoplasmic p65 ratio, rep 1": 1.4, "nuclear/cytoplasmic p65 ratio, rep 2": 1.45, "low cell count flag": "enough cells to score", "call": "inactive"}
{"target gene": "Rnase2b", "p65 translocation robust z-score": 0.72, "nuclear/cytoplasmic p65 ratio, rep 1": 1.52, "nuclear/cytoplasmic p65 ratio, rep 2": 1.49, "low cell count flag": "enough cells to score", "call": "inactive"}
